The other results are listed elsewhere or left out.
Legend:
Assay in all cases: log2 fold change, soluble protein after heating vs DMSO (PISA); higher = thermal stabilisation; K562 lysate, 10 uM; active = over 0.2 and 3.5 SD of the protein, either way, in both replicates (recomputed)
[1] = compound: NCC(=O)Nc1ccc(-n2nc(C(F)(F)F)cc2-c2ccc3c(ccc4ccccc43)c2)cc1
In short: (§1)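 Following dounce homogenisation of K562 pellets in PBS pH 7.4 with 1 mM MgCl2, crude extract at 1 mg/mL protein was incubated for 30 min with 10 μM compound. Aliquots were then heated for 3 min over 48°C-58°C and pooled, NP-40 was added to 0.5% at 4°C, and soluble protein was recovered as the supernatant at 21,000xg for 90 min. Channel-sum-equalised TMTpro 16plex LC-MS/MS quantified this protein. Each value, from duplicates, is a log-two fold change in thermal stability relative to solvent controls.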

Protein sequences, listed by entry. Tags and fused reporters are not part of them. Lines headed by an entry give the natural chain unless they say otherwise; changes in a name come on top.
UniProt P20585: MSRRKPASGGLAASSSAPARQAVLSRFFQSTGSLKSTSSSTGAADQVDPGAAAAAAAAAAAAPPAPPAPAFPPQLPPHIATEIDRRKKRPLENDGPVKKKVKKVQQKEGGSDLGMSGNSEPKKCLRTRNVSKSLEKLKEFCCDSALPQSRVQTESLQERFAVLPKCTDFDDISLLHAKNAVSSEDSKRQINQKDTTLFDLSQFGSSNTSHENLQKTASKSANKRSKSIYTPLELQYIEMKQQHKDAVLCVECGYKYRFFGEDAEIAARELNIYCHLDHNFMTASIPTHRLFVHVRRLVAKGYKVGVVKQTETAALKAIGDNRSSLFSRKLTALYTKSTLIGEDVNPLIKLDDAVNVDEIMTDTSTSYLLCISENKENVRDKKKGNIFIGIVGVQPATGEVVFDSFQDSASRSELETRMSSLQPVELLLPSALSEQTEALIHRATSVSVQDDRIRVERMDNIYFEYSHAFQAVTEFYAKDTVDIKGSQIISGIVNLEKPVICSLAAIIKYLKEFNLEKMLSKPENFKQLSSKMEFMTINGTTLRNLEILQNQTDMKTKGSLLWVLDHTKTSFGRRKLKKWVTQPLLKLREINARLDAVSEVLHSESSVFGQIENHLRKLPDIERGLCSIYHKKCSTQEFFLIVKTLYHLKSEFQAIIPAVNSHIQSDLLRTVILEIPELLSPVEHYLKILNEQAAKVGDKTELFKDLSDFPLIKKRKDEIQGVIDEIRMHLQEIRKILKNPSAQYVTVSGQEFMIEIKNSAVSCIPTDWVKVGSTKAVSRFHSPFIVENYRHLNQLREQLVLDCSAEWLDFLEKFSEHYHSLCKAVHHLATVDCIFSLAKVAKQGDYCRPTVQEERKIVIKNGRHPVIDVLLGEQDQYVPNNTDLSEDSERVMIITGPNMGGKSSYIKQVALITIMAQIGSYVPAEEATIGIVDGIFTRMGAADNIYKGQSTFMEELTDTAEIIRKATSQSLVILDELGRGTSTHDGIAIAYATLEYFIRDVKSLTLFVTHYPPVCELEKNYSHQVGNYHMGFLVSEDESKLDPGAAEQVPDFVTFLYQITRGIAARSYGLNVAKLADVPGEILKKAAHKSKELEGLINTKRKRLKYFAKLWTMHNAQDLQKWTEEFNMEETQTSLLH
UniProt Q8NCE2: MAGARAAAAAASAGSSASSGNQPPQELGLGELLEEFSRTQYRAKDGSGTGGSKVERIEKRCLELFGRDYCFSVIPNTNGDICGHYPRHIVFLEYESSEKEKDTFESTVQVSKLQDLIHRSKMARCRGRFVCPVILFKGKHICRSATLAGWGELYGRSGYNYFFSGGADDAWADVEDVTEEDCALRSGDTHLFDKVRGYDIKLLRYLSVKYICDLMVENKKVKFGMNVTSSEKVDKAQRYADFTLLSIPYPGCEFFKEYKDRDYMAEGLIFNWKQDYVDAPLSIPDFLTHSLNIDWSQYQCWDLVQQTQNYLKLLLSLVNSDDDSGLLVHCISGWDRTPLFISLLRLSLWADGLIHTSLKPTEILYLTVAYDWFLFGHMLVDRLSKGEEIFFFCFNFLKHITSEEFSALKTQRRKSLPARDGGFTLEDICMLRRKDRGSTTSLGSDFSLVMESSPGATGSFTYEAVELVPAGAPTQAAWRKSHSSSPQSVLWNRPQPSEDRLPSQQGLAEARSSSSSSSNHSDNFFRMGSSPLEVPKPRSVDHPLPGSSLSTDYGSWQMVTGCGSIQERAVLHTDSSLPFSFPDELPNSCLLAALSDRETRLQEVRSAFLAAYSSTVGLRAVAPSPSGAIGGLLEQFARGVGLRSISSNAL
UniProt P82909: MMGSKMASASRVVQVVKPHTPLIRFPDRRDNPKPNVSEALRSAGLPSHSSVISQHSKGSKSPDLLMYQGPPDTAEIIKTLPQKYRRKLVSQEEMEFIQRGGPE
UniProt Q9Y217: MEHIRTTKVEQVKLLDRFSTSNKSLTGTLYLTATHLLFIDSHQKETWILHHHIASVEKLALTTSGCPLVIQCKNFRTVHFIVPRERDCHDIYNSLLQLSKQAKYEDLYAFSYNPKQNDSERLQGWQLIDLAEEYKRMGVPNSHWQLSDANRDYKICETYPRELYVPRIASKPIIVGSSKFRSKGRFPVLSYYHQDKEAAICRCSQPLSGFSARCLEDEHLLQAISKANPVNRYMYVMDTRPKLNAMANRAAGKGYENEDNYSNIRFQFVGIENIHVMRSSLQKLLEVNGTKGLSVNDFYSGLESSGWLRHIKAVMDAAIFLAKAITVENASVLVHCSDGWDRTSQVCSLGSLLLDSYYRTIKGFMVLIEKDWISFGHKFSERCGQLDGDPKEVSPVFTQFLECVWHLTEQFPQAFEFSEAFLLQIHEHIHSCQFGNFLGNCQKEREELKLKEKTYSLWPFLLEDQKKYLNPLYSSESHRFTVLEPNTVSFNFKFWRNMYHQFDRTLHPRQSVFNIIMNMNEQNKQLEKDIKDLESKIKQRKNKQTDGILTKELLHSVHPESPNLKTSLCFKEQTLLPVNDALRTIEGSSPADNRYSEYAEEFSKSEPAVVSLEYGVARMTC
UniProt P03886, whole entry, looked up: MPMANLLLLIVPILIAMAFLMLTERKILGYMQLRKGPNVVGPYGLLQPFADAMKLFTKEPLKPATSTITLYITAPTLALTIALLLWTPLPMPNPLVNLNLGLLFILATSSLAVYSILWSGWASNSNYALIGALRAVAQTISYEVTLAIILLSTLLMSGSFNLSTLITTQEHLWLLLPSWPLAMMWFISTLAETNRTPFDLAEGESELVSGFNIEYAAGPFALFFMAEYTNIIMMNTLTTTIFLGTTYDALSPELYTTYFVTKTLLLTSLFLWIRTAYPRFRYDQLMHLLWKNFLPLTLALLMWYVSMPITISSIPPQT

vorinostat = compound: O=C(CCCCCCC(=O)Nc1ccccc1)NO [vorinostat]
In short: as §1

silmitasertib = compound: O=C(O)c1ccc2c(c1)nc(Nc1cccc(Cl)c1)c1ccncc12 [silmitasertib]
In short: as §1

[2] = compound: O=C1NC(=O)C(c2cnc3ccccn23)=C1c1cn2c3c(cc(F)cc13)CN(C(=O)N1CCCCC1)CC2
In short: as §1

entospletinib = compound: c1cn2cc(-c3ccc4cn[nH]c4c3)nc(Nc3ccc(N4CCOCC4)cc3)c2n1 [entospletinib]
In short: as §1

Target	log2 fold change [1]	log2 fold change (vorinostat)	log2 fold change (silmitasertib)	log2 fold change [2]	log2 fold change (entospletinib)
MSH3 (UniProt P20585)	inactive: 0.044	active: -0.316	inactive: 0.055	inactive: -0.017	inactive: 0.025
MRPL58 (UniProt Q14197)	inactive: 0.02	inactive: -0.053	inactive: -0.008	inactive: 0.038	inactive: 0.041
MTMR1 (UniProt Q13613)	inactive: -0.05	inactive: -0.188	inactive: 0.037	inactive: -0.008	inactive: 0.006
MTMR14 (UniProt Q8NCE2)	inactive: 0.005	inactive: -0.092	inactive: 0.064	inactive: -0.036	inactive: 0
MRPL49 (UniProt Q13405)	inactive: 0.003	inactive: 0.127	inactive: -0.019	inactive: 0.02	inactive: -0.083
MRPL51 (UniProt Q4U2R6)	inactive: -0.03	inactive: -0.067	inactive: -0.054	inactive: 0.121	inactive: 0.003
MRPS36 (UniProt P82909)	inactive: 0.018	inactive: 0.196	inactive: -0.077	inactive: 0.004	inactive: -0.034
MTMR6 (UniProt Q9Y217)	inactive: -0.018	active: -0.276	inactive: 0.027	inactive: -0.027	inactive: 0.003
MT-ND1 (UniProt P03886)	inactive: 0.002	inactive: 0.072	inactive: 0.033	inactive: 0.015	inactive: 0.121

Single entries from above.
Entry of MT-ND1 (UniProt P03886) under log2 fold change (vorinostat): inactive: 0.072
Entry of MRPL58 (UniProt Q14197) under log2 fold change (vorinostat): inactive: -0.053
